Measured values from paper PMC9485235, “Structural insights into cyanobacterial RuBisCO assembly coordinated by two chaperones Raf1 and RbcX” (Cell Discovery, 2022).
These are yes or no findings as the source states them, for the method shown. Some results given as binding are weak or reduced against the parent protein; the word gives no strength. For part of these data: Where a sequence is shown, tags or fusion partners need not be part of it.

B1: RuBisCO accumulation factor 1 (Raf1) from Anabaena sp. PCC 7120 (protein, UniProt Q8YLP6 1-361)
chain: MTELPPNAPNPENATNELAQELLRKLRQKQGNWVEWGQAIASLQKSGYNPQDIFEATGFEPVQQNQVIVGSQVYNSLEKSGASAATLAHYATRGSDVLYELRLLTHEERAAAGDLTFTHKVDADEAREIAKAIKDFSRFRILPEGFSNHPGDAVAYQAWKLARQYSDLQERSRLIARGLRFAHSETARKQIEQLLVDFTVVSQRPAPIPPFFRFDTEDELPRIVPVVGQLPLKAEELKAVPLVEEIEPFRLVKFSGEQAWVALPGWQVLLAAEDPVTILATSDRFPKQNQTEPGPVLVVVDRSQREWNDFSYFVVDHDGELDFQWFETKPEFPILGKVIILVRPRRILDENVTKDSWQIDE
B2: Recombinant Anabaena sp. PCC 7120 Flag-RbcS (RuBisCO small subunit) (natural protein, UniProt P06514 1-109, looked up)
chain: MQTLPKERRYETLSYLPPLTDVQIEKQVQYILSQGYIPAVEFNEVSEPTELYWTLWKLPLFGAKTSREVLAEVQSCRSQYPGHYIRVVGFDNIKQCQILSFIVHKPSRY
notes: RbcS, RuBisCO small subunit, Anabaena sp; coding region amplified from genomic DNA; plasmid pET19-Flag-RbcS; A His-RbcS was also made (pET19-His-RbcS); the assembly-assay methods name Flag-RbcS; source: E. coli BL21 (DE3), purified (anti-FLAG M2 gel, Superdex 75); also in lysate (holoenzyme co-purification)

What was measured:
[1] = biological target: RuBisCO large subunit RbcL from Anabaena sp. PCC 7120 (His-RbcL) (Anabaena sp. PCC 7120) (UniProt P00879); assay: cryo-EM structure; RbcL–Raf1–RbcX ternary complex co-expressed in E. coli with GroEL-GroES, purified by Ni-NTA and gel filtration in 50 mM Tris-HCl pH 8.0, 20 mM NaCl, 5 mM MgCl2; ~2 mg/mL; D4 symmetry; 3.3 Å; both purified
[2] = biological target: RuBisCO large subunit RbcL from Anabaena sp. PCC 7120 (His-RbcL) (Anabaena sp. PCC 7120) (UniProt P00879); assay: native gel or EMSA; RuBisCO assembly assays: 0.5 µM L8F8 or L8F8X16 mixed with Flag-RbcS (0-10-fold to RbcL), with or without pre-incubation with 8 µM RbcX or RbcX^E32A&R69A or RbcX2 at 0-1 fold to RbcL; 25 °C, 20 mM Tris-HCl pH 8.0, 300 mM NaCl, 5 mM MgCl2, 5% glycerol; ~0.5 h; 6% native-PAGE, bands analysed by SDS-PAGE; both purified
[3] = biological target: RuBisCO large subunit RbcL from Anabaena sp. PCC 7120 (His-RbcL) (Anabaena sp. PCC 7120) (UniProt P00879); assay: co-purification (Ni-NTA, gel filtration); cells expressing Flag-RbcS and cells expressing His-RbcL with RbcX and S. elongatus PCC 7942 Raf1 (and GroEL-GroES) were mixed and disrupted; purified as the ternary complex by Ni-NTA and gel filtration to give the L8S8 holoenzyme

| Binder | binding [1] | binding [2] | binding [3] |
| --- | --- | --- | --- |
| B1 | binds | binds |  |
| B2 |  |  | binds |
